US20040197795A1 (published 2004)
No constants are given. Whether binding was seen depends on the method and setting. Some binding calls cover weakened binding; strength is not graded here.

Sequences of proteins named here, by UniProt entry; tags and fusion partners are left off. Residues count along the entry.
UniProt P61823, residues 27-150: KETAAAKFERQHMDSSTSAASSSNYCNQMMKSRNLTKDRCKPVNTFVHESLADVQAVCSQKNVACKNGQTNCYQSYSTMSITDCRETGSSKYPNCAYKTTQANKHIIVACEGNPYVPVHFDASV

Target: RNase A (Ribonuclease A, Sigma R4875) (UniProt P61823)
Assay: affinity purification on RNase A resin (method of Blackburn 1979), without reducing agents

binding: binds
B1: "RNasin Plus"-brand RNase inhibitor (recombinant rat-derived RNase inhibitor protein, Promega Pt # N261) (other, UniProt P29315 1-456, looked up)
chain: MSLDIQCEQLSDARWTELLPLIQQYQVVRLDDCGLTEVRCKDIRSAIQANPALTELSLRTNELGDAGVGLVLQGLQNPTCKIQKLSLQNCSLTEAGCGVLPDVLRSLSTLRELHLNDNPLGDEGLKLLCEGLRDPQCRLEKLQLEYCNLTATSCEPLASVLRVKPDFKELVLSNNDFHEAGIHTLCQGLKDSACQLESLKLENCGITSANCKDLCDVVASKASLQELDLGSNKLGNTGIAALCSGLLLPSCRLRTLWLWDCDVTAEGCKDLCRVLRAKQSLKELSLAGNELKDEGAQLLCESLLEPGCQLESLWVKTCSLTAASCPHFCSVLTKNRSLFELQMSSNPLGDSGVVELCKALGYPDTVLRVLWLGDCDVTDSGCSSLATVLLANRSLRELDLSNNCMGDNGVLQLLESLKQPSCILQQLVLYDIYWTDEVEDQLRALEEERPSLRIIS
